Results are given in words; binding and its absence hold for the method and conditions named. Binding seen in cells or lysates may run through a third protein. Here binding means that the protein was enriched with, or labelled near, the bait; the list need not be complete. For some assays here: No binding means not detected with the bait. Tags and fused reporters may be left off the sequences shown.
T1: Ldb16-TurboID-HA (budding yeast) (UniProt P25587)
T1 sequence: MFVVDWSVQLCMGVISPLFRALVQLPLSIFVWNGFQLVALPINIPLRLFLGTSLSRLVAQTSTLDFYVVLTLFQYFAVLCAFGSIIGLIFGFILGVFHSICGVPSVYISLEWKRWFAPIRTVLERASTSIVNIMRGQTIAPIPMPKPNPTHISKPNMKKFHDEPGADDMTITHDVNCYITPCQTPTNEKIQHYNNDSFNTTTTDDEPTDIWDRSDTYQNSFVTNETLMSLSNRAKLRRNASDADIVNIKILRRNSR

T2: Ldo45-TurboID-HA (budding yeast) (UniProt P40218)
T2 sequence: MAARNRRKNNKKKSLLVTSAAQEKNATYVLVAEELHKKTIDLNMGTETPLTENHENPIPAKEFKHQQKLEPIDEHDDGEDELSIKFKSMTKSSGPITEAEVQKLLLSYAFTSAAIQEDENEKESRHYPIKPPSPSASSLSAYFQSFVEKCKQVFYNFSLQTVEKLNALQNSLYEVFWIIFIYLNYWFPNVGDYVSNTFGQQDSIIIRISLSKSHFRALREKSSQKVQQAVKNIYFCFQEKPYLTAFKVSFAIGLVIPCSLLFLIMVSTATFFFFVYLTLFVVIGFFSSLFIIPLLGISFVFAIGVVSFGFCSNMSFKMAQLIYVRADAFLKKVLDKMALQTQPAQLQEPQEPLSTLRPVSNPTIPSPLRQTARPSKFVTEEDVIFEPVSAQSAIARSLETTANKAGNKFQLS

T3: Ldo16-TurboID-HA (budding yeast) (UniProt P40219)
T3 sequence: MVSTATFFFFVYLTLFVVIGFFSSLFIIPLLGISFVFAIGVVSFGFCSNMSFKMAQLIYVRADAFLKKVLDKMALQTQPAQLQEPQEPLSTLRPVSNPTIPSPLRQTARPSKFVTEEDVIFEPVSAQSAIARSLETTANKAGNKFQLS

T4: Sei1-TurboID-HA (budding yeast) (UniProt Q06058)
T4 sequence: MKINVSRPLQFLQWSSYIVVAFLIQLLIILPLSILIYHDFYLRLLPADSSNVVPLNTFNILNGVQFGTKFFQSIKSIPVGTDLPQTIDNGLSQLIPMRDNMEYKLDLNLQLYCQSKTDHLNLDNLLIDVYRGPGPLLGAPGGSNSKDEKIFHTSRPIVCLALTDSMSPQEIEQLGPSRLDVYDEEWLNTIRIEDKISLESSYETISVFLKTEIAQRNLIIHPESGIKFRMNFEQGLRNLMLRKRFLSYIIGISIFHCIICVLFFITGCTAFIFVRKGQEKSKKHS


Assays:
[1] = target: T1, Ldb16-TurboID-HA (budding yeast); assay: proximity labelling; TurboID labelling in living yeast (arc1Δ background; for Ldo45/16-TurboID-HA also in tgl4Δ, pln1Δ, sei1Δ, ldb16Δ and pex30Δ cells), 50 μM biotin, 6 h, 30 °C; whole-cell extracts blotted with Strp-HRP; bands identified by the size shift of PA-tagged candidates and their loss on deletion
[2] = target: T2, Ldo45-TurboID-HA (budding yeast); assay: as above
[3] = target: T3, Ldo16-TurboID-HA (budding yeast); assay: as above
[4] = target: T1, Ldb16-TurboID-HA (budding yeast); assay: proximity labelling; TurboID labelling in the LD-induction system: 3Δ PGAL-LRO1 and 4Δ strains shifted to raffinose or galactose medium with 50 μM biotin, 3 h, 30 °C; Strp pull-down and Western blot
[5] = target: T1, Ldb16-TurboID-HA (budding yeast); assay: proximity labelling; TurboID labelling 'in our studies'; which read-out (Strp-HRP blot, Strp pull-down with Western blot or mass spectrometry) is not told
[6] = target: T4, Sei1-TurboID-HA (budding yeast); assay: as above

Binder	binding [1]	binding [2]	binding [3]	binding [5]	binding [6]	other results
Ldo45-PA (protein, UniProt P40218 1-412) MAARNRRKNNKKKSLLVTSAAQEKNATYVLVAEELHKKTIDLNMGTETPLTENHENPIPAKEFKHQQKLEPIDEHDDGEDELSIKFKSMTKSSGPITEAEVQKLLLSYAFTSAAIQEDENEKESRHYPIKPPSPSASSLSAYFQSFVEKCKQVFYNFSLQTVEKLNALQNSLYEVFWIIFIYLNYWFPNVGDYVSNTFGQQDSIIIRISLSKSHFRALREKSSQKVQQAVKNIYFCFQEKPYLTAFKVSFAIGLVIPCSLLFLIMVSTATFFFFVYLTLFVVIGFFSSLFIIPLLGISFVFAIGVVSFGFCSNMSFKMAQLIYVRADAFLKKVLDKMALQTQPAQLQEPQEPLSTLRPVSNPTIPSPLRQTARPSKFVTEEDVIFEPVSAQSAIARSLETTANKAGNKFQLS	binds					
Ldo45 (protein, UniProt P40218 1-412) MAARNRRKNNKKKSLLVTSAAQEKNATYVLVAEELHKKTIDLNMGTETPLTENHENPIPAKEFKHQQKLEPIDEHDDGEDELSIKFKSMTKSSGPITEAEVQKLLLSYAFTSAAIQEDENEKESRHYPIKPPSPSASSLSAYFQSFVEKCKQVFYNFSLQTVEKLNALQNSLYEVFWIIFIYLNYWFPNVGDYVSNTFGQQDSIIIRISLSKSHFRALREKSSQKVQQAVKNIYFCFQEKPYLTAFKVSFAIGLVIPCSLLFLIMVSTATFFFFVYLTLFVVIGFFSSLFIIPLLGISFVFAIGVVSFGFCSNMSFKMAQLIYVRADAFLKKVLDKMALQTQPAQLQEPQEPLSTLRPVSNPTIPSPLRQTARPSKFVTEEDVIFEPVSAQSAIARSLETTANKAGNKFQLS	binds					binding [4]: binds
Erg6 (protein, UniProt P25087 1-383) MSETELRKRQAQFTRELHGDDIGKKTGLSALMSKNNSAQKEAVQKYLRNWDGRTDKDAEERRLEDYNEATHSYYNVVTDFYEYGWGSSFHFSRFYKGESFAASIARHEHYLAYKAGIQRGDLVLDVGCGVGGPAREIARFTGCNVIGLNNNDYQIAKAKYYAKKYNLSDQMDFVKGDFMKMDFEENTFDKVYAIEATCHAPKLEGVYSEIYKVLKPGGTFAVYEWVMTDKYDENNPEHRKIAYEIELGDGIPKMFHVDVARKALKNCGFEVLVSEDLADNDDEIPWYYPLTGEWKYVQNLANLATFFRTSYLGRQFTTAMVTVMEKLGLAPEGSKEVTAALENAAVGLVAGGKSKLFTPMMLFVARKPENAETPSQTSQEATQ				no binding	no binding	
Pex30 (protein, UniProt Q06169 1-523) MSGNTTNVHETRAKFAETLQPRIGGNTTKVIRAALEKNEAESGVSEDNDNGSLEKVNVATSPLLTSTPPTISKALVKLYPYLILIDEFLNVVTWTGKNIWSSVLMLCLFITTVEYFETLVKYFGHLAIIAILWGYSLLDNYIEGTLSSSPTLEDIALLMNRVSLKSDILLSPMVNLGTQDIQRLLYTTVILSPIYVMITWLLLPPRSLMLMVGMFLLTYHSPWSKVARRLLWKFKIVRLLVFYVTGLDLGGINKDQGIFATVQKQVKKLASTENSNGVLSDSKPIRFTYVLYENQRRWLGIGWKPSMLSYERTPWTDEFLNEAPSPENFHLPEETNTMVWRWVDKTWRLDMTNDGAIQVPNSKARTSADPSPDEGFIYYDNTWKKPSKEDSFSKYTRRRRWVRTAELVKTSDFDESVINSNRNSAIEQKVEENSTNGLTAEQELGSNKQEKDNAKKVGEPTTEETKEFAEASNINEGEFERISSTDEEVLKSRARDRLAKVLDDTEEKEQSNPTIGRDSKKAV				no binding	no binding	

More lines, main results first:

binding [1]	binding [2]	binding [3]	binding [5]	binding [6]	Binder	other results
	binds	binds			Tgl4 (protein, UniProt P36165 1-910) MSSKISDLTSTQNKPLLVTQQLIEKYYEQILGTSQNIIPILNPKNKFIRPSKDNSDVERVEEDAGKRLQTGKNKTTNKVNFNLDTGNEDKLDDDQETVTENENNDIEMVETDEGEDERQGSSLASKCKSFLYNVFVGNYERDILIDKVCSQKQHAMSFEEWCSAGARLDDLTGKTEWKQKLESPLYDYKLIKDLTSRMREERLNRNYAQLLYIIRTNWVRNLGNMGNVNLYRHSHVGTKYLIDEYMMESRLALESLMESDLDDSYLLGILQQTRRNIGRTALVLSGGGTFGLFHIGVLGTLFELDLLPRVISGSSAGAIVASILSVHHKEEIPVLLNHILDKEFNIFKDDKQKSESENLLIKISRFFKNGTWFDNKHLVNTMIEFLGDLTFREAYNRTGKILNITVSPASLFEQPRLLNNLTAPNVLIWSAVCASCSLPGIFPSSPLYEKDPKTGERKPWTGSSSVKFVDGSVDNDLPISRLSEMFNVDHIIACQVNIHVFPFLKLSLSCVGGEIEDEFSARLKQNLSSIYNFMANEAIHILEIGSEMGIAKNALTKLRSVLSQQYSGDITILPDMCMLFRIKELLSNPTKEFLLREITNGAKATWPKVSIIQNHCGQEFALDKAISYIKGRMIVTSSLKTPFQFADSVIGLIKAPEQTSDESKNPENSTLLTRTPTKGDNHISNVLDDNLLESESTNSLLLLRENASTYGRSPSGFRPRYSITSASLNPRHQRRKSDTISTSRRPAKSFSFSVASPTSRMLRQSSKINGHPPPILQKKTSMGRLMFPMDAKTYDPESHELIPHSASIETPAMVDKKLHFGRKSRYLRHMNKKWVSSSNILYTDSDKEDHPTLRLISNFDSDAMIHSDLAGNFRRHSIDGRPPSQATKSSPFRSRPSSSTQHKSTTSFTQ	
	binds	binds			Pln1 (protein, UniProt P36139 1-283) MSESSISSSKPSVELPQATWSHLQRYPALSKFIKYAESLPPVERLISFNLVVLGSVNQWVSESSSSPRLVKQVVAAGKEGAFKLDELVNLLVFKEGVDGLLYNWKSHSNTPGIWLVWFFVDYVANISNTLLREFLIKPLHLQGSTASKEIGSSGEENKVTDASSLPHVAELSSTTRGMSQEIQSKVKSNYIDPTKDLAKEKYDAIVKPTTDKLQSVYIDPTKTKLNETYQRFTTVYENNLSKSESVPKAIVSTGLDLGNATIEKLKASREDQTNSKPAAVSTN	

Reference: paper PMC11342095
